Publication PMC7186558
No constants are given. Whether binding was seen depends on the method and setting. In cells and extracts the contact can be indirect. Some binding calls cover weakened binding; strength is not graded here. Tags and fused reporters may be left off the sequences shown.

By UniProt entry, the sequences of proteins in these tests, tags left out.
UniProt A6H603: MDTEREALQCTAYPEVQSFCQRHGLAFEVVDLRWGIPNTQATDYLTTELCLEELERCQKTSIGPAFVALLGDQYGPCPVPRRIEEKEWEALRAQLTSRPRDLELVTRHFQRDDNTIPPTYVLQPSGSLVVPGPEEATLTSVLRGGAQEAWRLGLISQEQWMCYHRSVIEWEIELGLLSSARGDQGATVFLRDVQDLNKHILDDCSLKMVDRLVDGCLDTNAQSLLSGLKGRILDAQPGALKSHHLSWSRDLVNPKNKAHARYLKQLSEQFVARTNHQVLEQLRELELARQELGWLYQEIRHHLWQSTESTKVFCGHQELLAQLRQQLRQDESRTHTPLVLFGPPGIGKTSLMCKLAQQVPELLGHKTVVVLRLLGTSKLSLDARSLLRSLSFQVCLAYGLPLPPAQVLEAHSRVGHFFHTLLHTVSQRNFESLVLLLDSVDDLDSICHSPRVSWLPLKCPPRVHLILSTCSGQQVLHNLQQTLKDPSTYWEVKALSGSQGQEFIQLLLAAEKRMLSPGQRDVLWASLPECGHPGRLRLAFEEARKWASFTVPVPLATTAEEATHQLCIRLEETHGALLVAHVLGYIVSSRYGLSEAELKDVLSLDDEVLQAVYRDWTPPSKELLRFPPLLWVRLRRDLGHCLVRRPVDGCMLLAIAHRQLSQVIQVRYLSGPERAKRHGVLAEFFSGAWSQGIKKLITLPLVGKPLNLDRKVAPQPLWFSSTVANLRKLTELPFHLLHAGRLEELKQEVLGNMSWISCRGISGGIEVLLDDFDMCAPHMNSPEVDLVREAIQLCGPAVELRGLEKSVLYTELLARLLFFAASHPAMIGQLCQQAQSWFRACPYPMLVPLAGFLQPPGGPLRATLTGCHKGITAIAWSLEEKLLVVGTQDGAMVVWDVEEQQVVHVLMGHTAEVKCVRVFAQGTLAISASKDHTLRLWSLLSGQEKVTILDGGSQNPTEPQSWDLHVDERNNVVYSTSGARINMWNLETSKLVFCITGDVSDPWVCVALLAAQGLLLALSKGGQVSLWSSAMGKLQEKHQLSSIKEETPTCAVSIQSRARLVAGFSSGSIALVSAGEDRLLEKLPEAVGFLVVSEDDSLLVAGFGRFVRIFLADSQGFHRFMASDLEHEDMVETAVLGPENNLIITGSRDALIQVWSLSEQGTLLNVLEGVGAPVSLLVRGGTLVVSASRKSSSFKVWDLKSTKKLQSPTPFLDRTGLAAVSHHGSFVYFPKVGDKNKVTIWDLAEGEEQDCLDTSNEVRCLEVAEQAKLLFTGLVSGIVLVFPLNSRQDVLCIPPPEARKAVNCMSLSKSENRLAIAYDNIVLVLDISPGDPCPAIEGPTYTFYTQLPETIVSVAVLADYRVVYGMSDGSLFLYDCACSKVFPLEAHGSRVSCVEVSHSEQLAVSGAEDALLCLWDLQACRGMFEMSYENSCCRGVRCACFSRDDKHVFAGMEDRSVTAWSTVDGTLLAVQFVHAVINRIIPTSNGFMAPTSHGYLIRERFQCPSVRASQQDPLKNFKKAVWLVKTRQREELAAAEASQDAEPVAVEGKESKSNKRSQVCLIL

B1: EGFP-tagged full-length Paics (enzyme, UniProt Q9DCL9 1-425)
chain: MATAVVVNIGKKLYEGKTKEVYELLDTPGRVLLQSKDQITAGNAARKNHLEGKAAISNKITSCIFQLLQEAGIKTAFTKKCGETAFIAPQCEMIPIEWVCRRIATGSFLKRNPGVQEGYKFYPPKVEMFFKDDANNDPQWSEEQLIAAKFCFAGLVIGQTEVDIMSHATQAIFEILEKSWLPQDCTLVDMKIEFGVDVTTKEIVLADVIDNDSWRLWPSGDRSQQKDKQSYRDLKEVTPEGLQMVKKNFEWVADRVELLLKSDSQCRVVVLMGSTSDLGHCEKIKKACGNFGIPCELRVTSAHKGPDETLRIKAEYEGDGIPTVFVSVAGRSNGLGPVLSGNTAYPVISCPPITPDWGAQDVWSSLRLPSGIGCSTILSPEGSAQFAAQIFGLNNHLVWAKLRASILNTWISLKQADKKVRQCNL
B2: Fgams-EGFP (enzyme, UniProt Q5SUR0 1-1337)
chain: MAPVLHFYVRPSGHEGAASGRVFRRLQEKLPTLQSVETELCYNVHWAAETLPWAEEMKKLMWLFGCPLVRDDVAQEPWLVPGSNDLLLEVGPRLNFSTPASTNIVSVCQAAGLRAVDRVETTRRYRLSFTDHPTAEMEAISLAALHDRMTEQHYPDPIQSFSPQSIPAPLKGSIDILAEGRPALEKANQELGLALDSWDLDFYTKRFQELQRNPSTVEVFDLAQSNSEHSRHWFFKGQLHVDGKKLAHSLFESIMSTQASSNPNNVLKFCDNSSAIQGKKVKFLRPEDSTRPSCFQQQQGLRHVVFTAETHNFPTGVAPFSGATTGTGGRIRDVQCTGRGAHVVAGTAGYCFGNLHIPDYNLPWEDPSFQYPGNFARPLEVAIEASNGASDYGNKFGEPVLAGFARSLGLQLPDGQRREWIKPIMFSGGIGSMEAKHVGKKPPEPGMEVVKVGGPVYRIGVGGGAASSVQVQGDNTSDLDFGAVQRGDPEMEQKMNRVIRACVEAPGGNPICSLHDQGAGGNGNVLKELSDPEGAIIYTSRFQLGDPTLNALEIWGAEYQESNALLLRPSDRDFLSRASARERCPACFVGTITGDKRIVLVDDRECLVGKTGQGDAPLTPPTPVDLDLDWVLGKMPQKEFFLQRKPPVLQPLALPPELSVRQALNRVLRLPAVASKRYLTNKVDRSVGGLVAQQQCVGPLQTPLADVAVVALSHQECIGAATALGEQPVKSLLDPKAAARLAVSEALTNLVFALVTDLRDVKCSGNWMWAAKLPGEGAALADACEAMVAVMAALGVAVDGGKDSLSMAARVGTETVQAPGSLVISAYAVCPDITATVTPDLKHPGGKGHLLYVPLSPGQHRLGGTALAQCFSQLGEHPPDLDLPENLVRAFHITQGLLKECRLCSGHDVSDGGLVTCLLEMAFAGNCGIEVDVPAPGIHALPVLFAEEPGLVLEVQEADVAGVRQRYESAGLRCLELGHTGEAGPQAMARISVNKAVVVEEPVGELRALWEETSFQLDLLQAEPRCVIEEKQGLKERTGPSYYLPPTFPVASVPCKPGGPVPRVAILREEGSNGDREMADAFHLAGFEVWDVTMQDLCSGAIRLDTFRGVAFVGGFSYADVLGSAKGWAAAVTFNPQAREELGRFRRRPDTFSLGVCNGCQLLALLGWVGSDPSEEQAEPGQDSQPTQPGLLLRHNLSGRFESRWATVRVEPGPALMLRGMEGSVLPVWSAHGEGYMAFSSPELQAKIEAKGLVPLHWADDDGNPTEQYPLNPNGSPGGIAGICSQDGRHLALMPHPERAVRLWQWAWRPSPFDVLPTSPWLQLFINARNWTQEDSC

Target: FLAG-tagged full-length Nwd1 (mouse) (UniProt A6H603)
Test: co-IP; HEK293 cells expressing FLAG-Nwd1 and/or the tagged partner; immunoprecipitation with an anti-FLAG antibody, immunoblotting with anti-EGFP, anti-HA or anti-FLAG antibodies

binding | Binder
binds | B1
binds | B2
